# Results of single-concentration screens

Amino acid sequences for entries named in this document (tags omitted). Residues count along the entry.
UniProt I6X8D2, whole entry: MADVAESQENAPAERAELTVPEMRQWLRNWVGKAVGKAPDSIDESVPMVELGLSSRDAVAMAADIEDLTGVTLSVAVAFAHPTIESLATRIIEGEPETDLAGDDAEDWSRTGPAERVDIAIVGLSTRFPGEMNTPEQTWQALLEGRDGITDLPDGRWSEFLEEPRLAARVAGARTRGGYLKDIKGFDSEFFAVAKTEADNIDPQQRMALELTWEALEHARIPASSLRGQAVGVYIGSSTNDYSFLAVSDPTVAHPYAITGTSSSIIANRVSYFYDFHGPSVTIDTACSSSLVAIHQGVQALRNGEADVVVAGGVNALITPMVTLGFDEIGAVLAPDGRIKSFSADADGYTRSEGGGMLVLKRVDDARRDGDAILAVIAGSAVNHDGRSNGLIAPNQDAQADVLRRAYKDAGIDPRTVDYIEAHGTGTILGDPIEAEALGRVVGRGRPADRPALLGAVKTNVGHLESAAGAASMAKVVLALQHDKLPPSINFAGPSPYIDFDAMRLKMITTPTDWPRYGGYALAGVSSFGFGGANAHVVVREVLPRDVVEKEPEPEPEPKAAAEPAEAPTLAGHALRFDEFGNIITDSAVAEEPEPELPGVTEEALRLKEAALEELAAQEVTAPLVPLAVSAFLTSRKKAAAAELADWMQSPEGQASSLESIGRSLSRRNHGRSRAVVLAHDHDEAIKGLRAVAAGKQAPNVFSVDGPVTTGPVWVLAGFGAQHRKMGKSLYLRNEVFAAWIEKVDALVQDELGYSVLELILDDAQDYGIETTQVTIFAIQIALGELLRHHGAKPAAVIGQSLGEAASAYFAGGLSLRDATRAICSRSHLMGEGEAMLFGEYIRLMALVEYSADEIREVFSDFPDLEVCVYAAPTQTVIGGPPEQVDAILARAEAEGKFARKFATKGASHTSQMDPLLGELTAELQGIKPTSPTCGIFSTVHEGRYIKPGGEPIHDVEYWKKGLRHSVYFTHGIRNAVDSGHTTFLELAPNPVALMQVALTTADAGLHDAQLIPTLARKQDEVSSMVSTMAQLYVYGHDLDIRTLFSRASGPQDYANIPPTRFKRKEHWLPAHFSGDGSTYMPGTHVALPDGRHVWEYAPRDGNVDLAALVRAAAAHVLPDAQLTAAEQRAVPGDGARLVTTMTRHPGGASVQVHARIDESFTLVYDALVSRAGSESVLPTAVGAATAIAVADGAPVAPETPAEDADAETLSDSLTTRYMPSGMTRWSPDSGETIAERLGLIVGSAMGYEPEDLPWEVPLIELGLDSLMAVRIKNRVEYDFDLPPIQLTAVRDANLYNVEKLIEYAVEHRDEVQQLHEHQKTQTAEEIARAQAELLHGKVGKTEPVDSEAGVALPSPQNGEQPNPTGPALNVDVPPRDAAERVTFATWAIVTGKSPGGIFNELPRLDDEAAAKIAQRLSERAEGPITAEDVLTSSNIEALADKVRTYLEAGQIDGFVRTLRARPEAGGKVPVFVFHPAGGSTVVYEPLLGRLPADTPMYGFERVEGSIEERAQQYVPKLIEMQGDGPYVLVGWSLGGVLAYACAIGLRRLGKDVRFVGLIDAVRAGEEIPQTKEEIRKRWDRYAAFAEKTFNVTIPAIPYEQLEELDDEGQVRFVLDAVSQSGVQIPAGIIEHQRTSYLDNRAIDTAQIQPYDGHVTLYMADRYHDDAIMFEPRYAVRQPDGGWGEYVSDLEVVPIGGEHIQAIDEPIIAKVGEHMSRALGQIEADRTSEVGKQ
UniProt Q8IDJ8, 1-583: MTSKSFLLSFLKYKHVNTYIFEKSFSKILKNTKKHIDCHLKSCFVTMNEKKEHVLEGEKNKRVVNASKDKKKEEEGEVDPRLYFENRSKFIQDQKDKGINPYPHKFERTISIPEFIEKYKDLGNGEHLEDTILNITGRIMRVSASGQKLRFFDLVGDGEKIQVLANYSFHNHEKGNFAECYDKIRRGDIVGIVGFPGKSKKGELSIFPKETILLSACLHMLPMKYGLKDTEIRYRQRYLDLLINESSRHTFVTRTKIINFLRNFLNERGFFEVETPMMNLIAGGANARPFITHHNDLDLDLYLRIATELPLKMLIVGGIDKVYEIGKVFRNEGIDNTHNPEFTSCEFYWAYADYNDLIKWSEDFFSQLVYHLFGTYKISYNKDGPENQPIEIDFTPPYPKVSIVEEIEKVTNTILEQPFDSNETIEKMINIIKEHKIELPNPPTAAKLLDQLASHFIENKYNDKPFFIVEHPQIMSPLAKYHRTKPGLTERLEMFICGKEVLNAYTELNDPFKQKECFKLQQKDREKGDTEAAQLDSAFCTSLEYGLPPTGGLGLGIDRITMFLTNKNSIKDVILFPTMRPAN
UniProt A4I591, 1-473: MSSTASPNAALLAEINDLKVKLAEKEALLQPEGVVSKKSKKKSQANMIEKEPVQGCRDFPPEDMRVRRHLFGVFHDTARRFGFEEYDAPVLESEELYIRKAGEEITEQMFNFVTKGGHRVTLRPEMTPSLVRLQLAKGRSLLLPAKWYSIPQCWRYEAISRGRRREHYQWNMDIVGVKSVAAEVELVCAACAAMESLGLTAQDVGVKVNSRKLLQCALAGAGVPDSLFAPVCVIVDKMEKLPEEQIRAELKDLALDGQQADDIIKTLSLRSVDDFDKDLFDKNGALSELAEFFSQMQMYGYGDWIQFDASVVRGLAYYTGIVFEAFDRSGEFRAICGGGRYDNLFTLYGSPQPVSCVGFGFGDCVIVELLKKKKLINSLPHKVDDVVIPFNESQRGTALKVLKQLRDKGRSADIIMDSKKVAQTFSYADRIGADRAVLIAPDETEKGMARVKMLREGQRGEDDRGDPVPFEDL
UniProt Q4DA54, 1-478: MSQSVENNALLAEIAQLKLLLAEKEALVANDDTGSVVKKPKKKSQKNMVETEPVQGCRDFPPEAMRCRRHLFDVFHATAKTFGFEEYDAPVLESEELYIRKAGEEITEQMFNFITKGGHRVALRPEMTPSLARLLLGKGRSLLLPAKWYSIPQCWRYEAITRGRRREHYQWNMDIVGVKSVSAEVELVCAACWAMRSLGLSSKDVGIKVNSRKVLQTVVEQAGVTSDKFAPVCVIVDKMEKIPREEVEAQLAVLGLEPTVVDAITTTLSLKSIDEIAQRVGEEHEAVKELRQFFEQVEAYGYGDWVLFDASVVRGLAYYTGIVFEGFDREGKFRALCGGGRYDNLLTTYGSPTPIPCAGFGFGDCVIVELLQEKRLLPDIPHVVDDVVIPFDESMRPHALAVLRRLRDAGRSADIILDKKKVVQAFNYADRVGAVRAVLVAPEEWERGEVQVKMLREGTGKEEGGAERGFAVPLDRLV

Pks13 thioesterase: 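Enzyme assay of the thioesterase domain of polyketide synthase 13; the read-out is not stated. Target: Polyketide synthase Pks13, Mycobacterium tuberculosis (UniProt I6X8D2). Tested at 30 µM. The record gives no direction; the compounds picked for IC50 retests had high values, so higher reads as stronger inhibition. About 67,000 compounds were tested under these conditions; 0.46% (about 300) showed 50% or more at least once.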
PfKRS1: 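Enzyme assay of the cytosolic lysyl-tRNA synthetase in 384-well plates, read by luminescence. Target: Lysine-tRNA ligase, Plasmodium falciparum 3D7 (UniProt Q8IDJ8). Concentration: 30 µM. Direction is inferred from only a few compounds that gave an IC50; most scored high, so higher reads as stronger inhibition. About 69,000 compounds were tested under these conditions; 0.071% (about 49) showed 50% or more at least once.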
LiHisRS: 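Enzyme assay of histidyl-tRNA synthetase; the read-out is not stated. Target: Histidine-tRNA ligase, Leishmania infantum (UniProt A4I591). Concentration: 30 µM. Direction is inferred from retests: higher values go with stronger inhibition. The assay is labelled LdHisRS but filed under L. infantum. Of about 69,000 compounds tested this way, about 410 (0.6%) reached 50% or more in at least one test.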
TcHisRS: 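Enzyme assay of histidyl-tRNA synthetase; the read-out is not stated. Target: Histidine-tRNA ligase, Trypanosoma cruzi CL Brener (UniProt Q4DA54). Concentration: 30 µM. The record gives no direction; compounds that gave an IC50 in retests scored well above the rest, so higher reads as stronger inhibition. Of about 69,000 compounds tested this way, about 31 (0.045%) reached 50% or more in at least one test.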

Each number is a percent effect as filed. How 0% and 100% were set is not recorded. Most values in the screen are low, and negative values occur. This is an unselected part of the compounds tested.

compound: COc1ccc(-c2cccc3c2OC(CN)C3)cc1F (stereo not shown)
Pks13 thioesterase: 4.926
PfKRS1: -0.01209
LiHisRS: 15.56
TcHisRS: 9.091

compound: CC(C)(C)NC(=O)C1(Cc2ccccc2-c2ccncc2)CCOCC1
Pks13 thioesterase: -30.23
PfKRS1: 0.1064
LiHisRS: -0.6897
TcHisRS: -1.521

compound: CC(=O)N1CCc2cc(Cl)cc(Cl)c2C1
Pks13 thioesterase: -42.31
PfKRS1: -1.508
LiHisRS: 3.529
TcHisRS: 3.139

compound: Cc1cc2n(n1)CC(CNCc1ccnc(-n3ccnc3C)c1)CN2 (stereo not shown)
Pks13 thioesterase: 9.669
PfKRS1: -0.1334
LiHisRS: 20
TcHisRS: -1.901

compound: Cc1ccc(-c2nc(C(=O)NCC3CCOC3)cs2)cc1 (stereo not shown)
Pks13 thioesterase: 3.792
PfKRS1: 1.3
LiHisRS: 10.43
TcHisRS: 3.448

compound: Cc1ccc(C(C(=O)N(C)CCc2cn[nH]c2)N(C)C)cc1 (stereo not shown)
Pks13 thioesterase: -7.331
PfKRS1: 2.009
LiHisRS: 6.452
TcHisRS: 6.897

compound: CNc1cncc(C2CCCN2Cc2ccccn2)n1 (stereo not shown)
Pks13 thioesterase: -31.69
PfKRS1: -3.077
LiHisRS: 8.333
TcHisRS: 3.784

compound: N#Cc1ccccc1NC(=O)c1ccc2c(c1)OCO2
Pks13 thioesterase: 8.324
PfKRS1: 1.322
LiHisRS: 4.225
TcHisRS: -0.7692

compound: CCS(=O)(=O)N(C)C1CCN(C(=O)c2ccc(C)c(C)c2)CC1
Pks13 thioesterase: -25.16
PfKRS1: 7.192
LiHisRS: 11.61
TcHisRS: 3.448

compound: Cc1cc(N(C)CCN(C)C)n2nc(C)cc2n1
Pks13 thioesterase: -28.91
PfKRS1: 2.413
LiHisRS: 17.14
TcHisRS: 8.163

compound: Cc1cnc(NCc2ccncc2)nc1-c1cnn(C)c1
Pks13 thioesterase: -33.22
PfKRS1: -1.234
LiHisRS: 4.196
TcHisRS: -0.4975

compound: CNc1cncc(C2CCCN2C(=O)c2ccc3c(c2)OCCO3)n1 (stereo not shown)
Pks13 thioesterase: 25.87
PfKRS1: 0.2307
LiHisRS: 10.14
TcHisRS: 4.396

compound: CC(C)c1ccc(CC2(C)Cc3cc(CC(=O)O)ccc3O2)cc1 (stereo not shown)
Pks13 thioesterase: 9.242
PfKRS1: -0.1424
LiHisRS: 5.755
TcHisRS: -3.448

compound: CC(C)C(C(=O)NC1CC1)n1cnc2cc(F)c(F)cc21 (stereo not shown)
Pks13 thioesterase: 5.941
PfKRS1: 5.072
LiHisRS: 32.88
TcHisRS: -3.158

compound: CS(=O)(=O)c1snnc1C1CCCN(Cc2ccncc2)C1 (stereo not shown)
Pks13 thioesterase: -4.914
PfKRS1: 0.1706
LiHisRS: 3.125
TcHisRS: 2.128

compound: Cc1nc2ccc(C(=O)N3CCC(COc4ccccn4)CC3)cc2[nH]1
Pks13 thioesterase: -7.267
PfKRS1: 1.129
LiHisRS: 8.511
TcHisRS: 11.65

The values are deposited in ChEMBL (CHEMBL3988442, “University of Dundee, Small-Polar-MMV Screening Library” (2021)).